{"source": "PubChem BioAssay AID1259254 – NCATS | 2017", "test": "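Genome-wide screen for genes that prevent DNA re-replication in cancer cells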 (primary screen)", "cell system": "human HCT116 colorectal cancer cells", "reagent": "single siRNA against human genes", "time to read-out": "3 days", "read-out": "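Imaged Hoechst DNA stain sorts each cell into a cycle phase by DNA amount; per plate, G2 fraction set to 0% for non-targeting and 100% for GMNN siRNA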", "scale": "G2 robust z-score and G2 cells, % of GMNN control: higher = more G2 cells, more excess DNA replication", "call rule": "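Active siRNAs have a G2 robust z of 5 or more median absolute deviations over the median, which in these data means about 38% or higher of GMNN control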", "note": "In all, the deposit lists about 59,000 reagents; this is a part drawn at random. About 1,550 of all reagents (2.6%) count as active. 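G2 share is only a proxy for re-replication; each gene was hit by three separate siRNAs, and active genes were retested.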 The numbers tell different reagents against one gene apart. Not all columns of the deposit are shown. Not given: the amount of reagent."}
{"target": "GLIS2 (GLIS family zinc finger 2)", "reagent": 1, "G2 robust z-score": -0.212, "G2 cells, % of GMNN control": 1.48, "outcome": "inactive"}
{"target": "GLIS2 (GLIS family zinc finger 2)", "reagent": 2, "G2 robust z-score": 1.64, "G2 cells, % of GMNN control": 14.5, "outcome": "inactive"}
{"target": "GLIS2 (GLIS family zinc finger 2)", "reagent": 3, "G2 robust z-score": 0.396, "G2 cells, % of GMNN control": 5.75, "outcome": "inactive"}
{"target": "CTSV (cathepsin V)", "reagent": 1, "G2 robust z-score": -0.27, "G2 cells, % of GMNN control": 1.07, "outcome": "inactive"}
{"target": "CTSV (cathepsin V)", "reagent": 2, "G2 robust z-score": -0.667, "G2 cells, % of GMNN control": -1.72, "outcome": "inactive"}
{"target": "CTSV (cathepsin V)", "reagent": 3, "G2 robust z-score": -1.69, "G2 cells, % of GMNN control": -8.94, "outcome": "inactive"}
{"target": "ROR2 (ROR family WNT receptor 2)", "reagent": 1, "G2 robust z-score": -1.18, "G2 cells, % of GMNN control": -5.32, "outcome": "inactive"}
{"target": "ROR2 (ROR family WNT receptor 2)", "reagent": 2, "G2 robust z-score": -1.36, "G2 cells, % of GMNN control": -6.62, "outcome": "inactive"}
{"target": "ROR2 (ROR family WNT receptor 2)", "reagent": 3, "G2 robust z-score": -0.628, "G2 cells, % of GMNN control": -1.45, "outcome": "inactive"}
{"target": "CCDC124 (coiled-coil domain containing 124)", "reagent": 1, "G2 robust z-score": 0.168, "G2 cells, % of GMNN control": 4.15, "outcome": "inactive"}
{"target": "CCDC124 (coiled-coil domain containing 124)", "reagent": 2, "G2 robust z-score": -0.558, "G2 cells, % of GMNN control": -0.96, "outcome": "inactive"}
{"target": "CCDC124 (coiled-coil domain containing 124)", "reagent": 3, "G2 robust z-score": -0.401, "G2 cells, % of GMNN control": 0.149, "outcome": "inactive"}

Entries listed so far whose gene name begins with R or r:
{"target": "ROR2 (ROR family WNT receptor 2)", "reagent": 1, "G2 robust z-score": -1.18, "G2 cells, % of GMNN control": -5.32, "outcome": "inactive"}
{"target": "ROR2 (ROR family WNT receptor 2)", "reagent": 2, "G2 robust z-score": -1.36, "G2 cells, % of GMNN control": -6.62, "outcome": "inactive"}
{"target": "ROR2 (ROR family WNT receptor 2)", "reagent": 3, "G2 robust z-score": -0.628, "G2 cells, % of GMNN control": -1.45, "outcome": "inactive"}
